The chains are these.
B1: PKB beta (protein, UniProt P31751 1-481, looked up)
RAC-beta …: MNEVSVIKEGWLHKRGEYIKTWRPRYFLLKSDGSFIGYKERPEAPDQTLPPLNNFSVAECQLMKTERPRPNTFVIRCLQWTTVIERTFHVDSPDEREEWMRAIQMVANSLKQRAPGEDPMDYKCGSPSDSSTTEEMEVAVSKARAKVTMNDFDYLKLLGKGTFGKVILVREKATGRYYAMKILRKEVIIAKDEVAHTVTESRVLQNTRHPFLTALKYAFQTHDRLCFVMEYANGGELFFHLSRERVFTEERARFYGAEIVSALEYLHSRDVVYRDIKLENLMLDKDGHIKITDFGLCKEGISDGATMKTFCGTPEYLAPEVLEDNDYGRAVDWWGLGVVMYEMMCGRLPFYNQDHERLFELILMEEIRFPRTLSPEAKSLLAGLLKKDPKQRLGGGPSDAKEVMEHRFFLSINWQDVVQKKLLPPFKPQVTSEVDTRYFDDEFTAQSITITPPDRYDSLGLLELDQRTHFPQFSYSASIRE
B2: Heparin cofactor II (protein, UniProt P05546 20-499, looked up)
Heparin cofactor 2: GSKGPLDQLEKGGETAQSADPQWEQLNNKNLSMPLLPADFHKENTVTNDWIPEGEEDDDYLDLEKIFSEDDDYIDIVDSLSVSPTDSDVSAGNILQLFHGKSRIQRLNILNAKFAFNLYRVLKDQVNTFDNIFIAPVGISTAMGMISLGLKGETHEQVHSILHFKDFVNASSKYEITTIHNLFRKLTHRLFRRNFGYTLRSVNDLYIQKQFPILLDFKTKVREYYFAEAQIADFSDPAFISKTNNHIMKLTKGLIKDALENIDPATQMMILNCIYFKGSWVNKFPVEMTHNHNFRLNEREVVKVSMMQTKGNFLAANDQELDCDILQLEYVGGISMLIVVPHKMSGMKTLEAQLTPRVVERWQKSMTNRTREVLLPKFKLEKNYNLVESLKLMGIRMLFDKNGNMAGISDQRIAIDLFKHQGTITVNEEGTQATTVTTVGFMPLSTQVRFTVDRPFLFLIYEHRTSCLLFMGRVANPSRS
B3: EphA1 (protein, UniProt P21709 26-976, looked up)
Ephrin type-A receptor 1: KEVTLMDTSKAQGELGWLLDPPKDGWSEQQQILNGTPLYMYQDCPMQGRRDTDHWLRSNWIYRGEEASRVHVELQFTVRDCKSFPGGAGPLGCKETFNLLYMESDQDVGIQLRRPLFQKVTTVAADQSFTIRDLVSGSVKLNVERCSLGRLTRRGLYLAFHNPGACVALVSVRVFYQRCPETLNGLAQFPDTLPGPAGLVEVAGTCLPHARASPRPSGAPRMHCSPDGEWLVPVGRCHCEPGYEEGGSGEACVACPSGSYRMDMDTPHCLTCPQQSTAESEGATICTCESGHYRAPGEGPQVACTGPPSAPRNLSFSASGTQLSLRWEPPADTGGRQDVRYSVRCSQCQGTAQDGGPCQPCGVGVHFSPGARGLTTPAVHVNGLEPYANYTFNVEAQNGVSGLGSSGHASTSVSISMGHAESLSGLSLRLVKKEPRQLELTWAGSRPRSPGANLTYELHVLNQDEERYQMVLEPRVLLTELQPDTTYIVRVRMLTPLGPGPFSPDHEFRTSPPVSRGLTGGEIVAVIFGLLLGAALLLGILVFRSRRAQRQRQQRQRDRATDVDREDKLWLKPYVDLQAYEDPAQGALDFTRELDPAWLMVDTVIGEGEFGEVYRGTLRLPSQDCKTVAIKTLKDTSPGGQWWNFLREATIMGQFSHPHILHLEGVVTKRKPIMIITEFMENGALDAFLREREDQLVPGQLVAMLQGIASGMNYLSNHNYVHRDLAARNILVNQNLCCKVSDFGLTRLLDDFDGTYETQGGKIPIRWTAPEAIAHRIFTTASDVWSFGIVMWEVLSFGDKPYGEMSNQEVMKSIEDGYRLPPPVDCPAPLYELMKNCWAYDRARRPHFQKLQAHLEQLLANPHSLRTIANFDPRMTLRLPSLSGSDGIPYRTVSEWLESIRMKRYILHFHSAGLDTMECVLELTAEDLTQMGITLPGHQKRILCSIQGFKD
B4: Fucosyltransferase 3 (protein, UniProt P21217 1-361, looked up)
3-galactosyl-N-acetylglucosami …: MDPLGAAKPQWPWRRCLAALLFQLLVAVCFFSYLRVSRDDATGSPRAPSGSSRQDTTPTRPTLLILLRTWPFHIPVALSRCSEMVPGTADCHITADRKVYPQADMVIVHHWDIMSNPKSRLPPSPRPQGQRWIWFNLEPPPNCQHLEALDRYFNLTMSYRSDSDIFTPYGWLEPWSGQPAHPPLNLSAKTELVAWAVSNWKPDSARVRYYQSLQAHLKVDVYGRSHKPLPKGTMMETLSRYKFYLAFENSLHPDYITEKLWRNALEAWAVPVVLGPSRSNYERFLPPDAFIHVDDFQSPKDLARYLQELDKDHARYLSYFRWRETLRPRSFSWALDFCKACWKLQQESRYQTVRSIAAWFT
B5: Lymphotoxin b R (protein, UniProt P36941 31-435, looked up)
Tumor necrosis factor …: QAVPPYASENQTCRDQEKEYYEPQHRICCSRCPPGTYVSAKCSRIRDTVCATCAENSYNEHWNYLTICQLCRPCDPVMGLEEIAPCTSKRKTQCRCQPGMFCAAWALECTHCELLSDCPPGTEAELKDEVGKGNNHCVPCKAGHFQNTSSPSARCQPHTRCENQGLVEAAPGTAQSDTTCKNPLEPLPPEMSGTMLMLAVLLPLAFFLLLATVFSCIWKSHPSLCRKLGSLLKRRPQGEGPNPVAGSWEPPKAHPYFPDLVQPLLPISGDVSPVSTGLPAAPVLEAGVPQQQSPLDLTREPQLEPGEQSQVAHGTNGIHVTGGSMTITGNIYIYNGPVLGGPPGPGDLPATPEPPYPIPEEGDPGPPGLSTPHQEDGKAWHLAETEHCGATPSNRGPRNQFITHD
B6: IL-13 Ra1 (protein, UniProt P78552 22-427, looked up)
Interleukin-13 receptor …: GGGGAAPTETQPPVTNLSVSVENLCTVIWTWNPPEGASSNCSLWYFSHFGDKQDKKIAPETRRSIEVPLNERICLQVGSQCSTNESEKPSILVEKCISPPEGDPESAVTELQCIWHNLSYMKCSWLPGRNTSPDTNYTLYYWHRSLEKIHQCENIFREGQYFGCSFDLTKVKDSSFEQHSVQIMVKDNAGKIKPSFNIVPLTSRVKPDPPHIKNLSFHNDDLYVQWENPQNFISRCLFYEVEVNNSQTETHNVFYVQEAKCENPEFERNVENTSCFMVPGVLPDTLNTVRIRVKTNKLCYEDDKLWSNWSQEMSIGKKRNSTLYITMLLIVPVIVAGAIIVLLLYLKRLKIIIFPPIPDPGKIFKEMFGDQNDDTLHWKKYDIYEKQTKEETDSVVLIENLKKASQ
B7: Myeloperoxidase (protein, UniProt P05164 165-745, looked up)
Myeloperoxidase: VTCPEQDKYRTITGMCNNRRSPTLGASNRAFVRWLPAEYEDGFSLPYGWTPGVKRNGFPVALARAVSNEIVRFPTDQLTPDQERSLMFMQWGQLLDHDLDFTPEPAARASFVTGVNCETSCVQQPPCFPLKIPPNDPRIKNQADCIPFFRSCPACPGSNITIRNQINALTSFVDASMVYGSEEPLARNLRNMSNQLGLLAVNQRFQDNGRALLPFDNLHDDPCLLTNRSARIPCFLAGDTRSSEMPELTSMHTLLLREHNRLATELKSLNPRWDGERLYQEARKIVGAMVQIITYRDYLPLVLGPTAMRKYLPTYRSYNDSVDPRIANVFTNAFRYGHTLIQPFMFRLDNRYQPMEPNPRVPLSRVFFASWRVVLEGGIDPILRGLMATPAKLNRQNQIAVDEIRERLFEQVMRIGLDLPALNMQRSRDHGLPGYNAWRRFCGLPQPETVGQLGTVLRNLKLARKLMEQYGTPNNIDIWMGGVSEPLKRKGRVGPLLACIIGTQFRKLRDGDRFWWENEGVFSMQQRQALAQISLPRIICDNTGITTVSKNNIFMSNSYPRDFVNCSTLPALNLASWREAS
B8: Eotaxin-2 (protein, UniProt O00175 27-119, looked up)
C-C motif chemokine 24: VVIPSPCCMFFVSKRIPENRVVSYQLSSRSTCLKAGVIFTTKKGQQFCGDPKQEWVQRYMKNLDAKQKKASPRARAVAVKGPVQRYPGNQTTC
B9: Topoisomerase I (protein, UniProt P11387 2-765, looked up)
DNA topoisomerase 1: SGDHLHNDSQIEADFRLNDSHKHKDKHKDREHRHKEHKKEKDREKSKHSNSEHKDSEKKHKEKEKTKHKDGSSEKHKDKHKDRDKEKRKEEKVRASGDAKIKKEKENGFSSPPQIKDEPEDDGYFVPPKEDIKPLKRPRDEDDADYKPKKIKTEDTKKEKKRKLEEEEDGKLKKPKNKDKDKKVPEPDNKKKKPKKEEEQKWKWWEEERYPEGIKWKFLEHKGPVFAPPYEPLPENVKFYYDGKVMKLSPKAEEVATFFAKMLDHEYTTKEIFRKNFFKDWRKEMTNEEKNIITNLSKCDFTQMSQYFKAQTEARKQMSKEEKLKIKEENEKLLKEYGFCIMDNHKERIANFKIEPPGLFRGRGNHPKMGMLKRRIMPEDIIINCSKDAKVPSPPPGHKWKEVRHDNKVTWLVSWTENIQGSIKYIMLNPSSRIKGEKDWQKYETARRLKKCVDKIRNQYREDWKSKEMKVRQRAVALYFIDKLALRAGNEKEEGETADTVGCCSLRVEHINLHPELDGQEYVVEFDFLGKDSIRYYNKVPVEKRVFKNLQLFMENKQPEDDLFDRLNTGILNKHLQDLMEGLTAKVFRTYNASITLQQQLKELTAPDENIPAKILSYNRANRAVAILCNHQRAPPKTFEKSMMNLQTKIDAKKEQLADARRDLKSAKADAKVMKDAKTKKVVESKKKAVQRLEEQLMKLEVQATDREENKQIALGTSKLNYLDPRITVAWCKKWGVPIEKIYNKTQREKFAWAIDMADEDYEF
B10: HINT1 (protein, UniProt P49773 2-126, looked up)
Adenosine …: ADEIAKAQVARPGGDTIFGKIIRKEIPAKIIFEDDRCLAFHDISPQAPTHFLVIPKKHISQISVAEDDDESLLGHLMIVGKKCAADLGLNKGYRMVVNEGSDGGQSVYHVHLHVLGGRQMHWPPG
B11: kallikrein 12 (protein, UniProt Q9UKR0 18-248, looked up)
Kallikrein-12: ATPKIFNGTECGRNSQPWQVGLFEGTSLRCGGVLIDHRWVLTAAHCSGSRYWVRLGEHSLSQLDWTEQIRHSGFSVTHPGYLGASTSHEHDLRLLRLRLPVRVTSSVQPLPLPNDCATAGTECHVSGWGITNHPRNPFPDLLQCLNLSIVSHATCHGVYPGRITSNMVCAGGVPGQDACQGDSGGPLVCGGVLQGLVSWGSVGPCGQDGIPGVYTYICKYVDWIRMIMRNN

The source of these data is patent publication US20200340060A1, “COMPOSITIONS AND METHODS FOR IDENTIFYING AND TREATING LIVER DISEASES AND MONITORING TREATMENT OUTCOMES” (Gilead Sciences, Inc., priority 2017, published 2020).

The nature of the first series: SOMAscan serum proteomics in NASH subjects treated with selonsertib/simtuzumab, baseline and week 24. More on the design: species or system human. The settings on record: serum protein marker level; hepatic ballooning improvers; week 24 vs baseline.
As to B1, the “Median percent CHG at W24 in improver” value is given as −7.77%.

For B2, the “Median percent CHG at W24 in improver” value turned out to be 3.88%.

Take B3: the “Median percent CHG at W24 in improver” value was 8.65%.

With B4, the “Median percent CHG at W24 in improver” value was −1.89%.

As for B5, the “Median percent CHG at W24 in improver” value is 3.35%.

For the molecule B6, the “Median percent CHG at W24 in improver” value came to 5.91%.

For the molecule B7, the “Median percent CHG at W24 in improver” value is −17.96%.

Consider B8, for which the “Median percent CHG at W24 in improver” value amounted to 4.07%.

For the molecule B9, the “Median percent CHG at W24 in improver” value is −13.48%.

Take B10: the “Median percent CHG at W24 in improver” value was −30.56%.

Consider B11, for which the “Median percent CHG at W24 in improver” value was determined as 3.44%.

Still in this series, the particulars now being: serum protein marker level; hepatic ballooning non-improvers; week 24 vs baseline.
B1: the “Median percent CHG at W24 in Non-improver” value is given as −0.495%.

In the case of B2, the “Median percent CHG at W24 in Non-improver” value was −1.345%.

Take B3: the “Median percent CHG at W24 in Non-improver” value worked out at 1.83%.

Turning to B4, the “Median percent CHG at W24 in Non-improver” value came out at 3.205%.

Take B5: the “Median percent CHG at W24 in Non-improver” value is given as −0.575%.

Turning to B6, the “Median percent CHG at W24 in Non-improver” value is reported as −0.565%.

In the case of B7, the “Median percent CHG at W24 in Non-improver” value is listed as −9.61%.

For the molecule B8, the “Median percent CHG at W24 in Non-improver” value is on record as −0.04%.

As for B9, the “Median percent CHG at W24 in Non-improver” value is on record as 6.47%.

As for B10, the “Median percent CHG at W24 in Non-improver” value is given as −10.655%.

As to B11, the “Median percent CHG at W24 in Non-improver” value is −1.51%.
